# Structures can show the parent of a compound that is named as a salt. This is one part of the list. Single values are uncertain here, since repeats match poorly.
# Tested on: Brugia pahangi adult female
# Experiment: motility inhibition on day 3 relative to DMSO vehicle; higher = more active
# Conditions: 10 µM; 3 days
row,SMILES,motility inhibition on day 3 [%]
1,CN1CCCN=C1/C=C/c1cccs1 [pyrantel pamoate],39.9
2,CCCCC(CC)COc1ccc(-c2nc(-c3ccc(OC)cc3)nc(-c3ccc(OCC(CC)CCCC)cc3O)n2)c(O)c1 (stereo not given) [bemotrizinol],9.51
3,CC/C=C\C/C=C\C/C=C\C/C=C\C/C=C\C/C=C\CCC(=O)O [doconexent],< 0
4,O=c1cc[nH]c(=O)[nH]1 [uracil],7.61
5,"CCC(=O)OCC(=O)[C@@]1(OC(=O)CC)[C@@H](C)C[C@H]2[C@@H]3CCC4=CC(=O)C=C[C@]4(C)[C@@]3(F)[C@@H](O)C[C@@]21C [betamethasone 17,21-dipropionate]",13.8
6,CC1(C)O[C@@H]2C[C@H]3[C@@H]4C[C@H](F)C5=CC(=O)CC[C@]5(C)[C@H]4[C@@H](O)C[C@]3(C)[C@]2(C(=O)CO)O1 [flurandrenolide],24.7
7,NNC(=O)c1ccncc1 [isoniazid],46.5
8,CCN1CCCC1CNC(=O)c1cc(S(N)(=O)=O)ccc1OC (stereo not given) [sulpiride],1.96
9,COc1ccc(-c2ccc3cc(C(=O)O)ccc3c2)cc1C12CC3CC(CC(C3)C1)C2 [adapalene],23.2
10,O=c1[nH]c(=O)n([C@H]2C[C@H](O)[C@@H](CO)O2)cc1I [idoxuridine],< 0
11,N[C@@H](COP(=O)(O)O)C(=O)O [O-Phospho-L-serine],< 0
12,Cc1cccc(N(C)C(=S)Oc2ccc3ccccc3c2)c1 [tolnaftate],< 0
13,O=C(O)c1cccnc1 [niacin],14.7
14,CCCCc1oc2ccccc2c1C(=O)c1cc(I)c(OCCN(CC)CC)c(I)c1 [Amiodarone hydrochloride],2.32
15,CC(C)C[C@H](NC(=O)[C@@H](Cc1cccc2ccccc12)NC(=O)[C@H](Cc1ccc(O)cc1)NC(=O)[C@H](CO)NC(=O)[C@H](Cc1c[nH]c2ccccc12)NC(=O)[C@H](Cc1cnc[nH]1)NC(=O)[C@@H]1CCC(=O)N1)C(=O)N[C@@H](CCCNC(=N)N)C(=O)N1CCC[C@H]1C(=O)NCC(N)=O [Nafarelin],9.34
16,CN(C)CCc1c[nH]c2ccc(CS(=O)(=O)N3CCCC3)cc12 [almotriptan],< 0
17,CN1CCN2c3ccccc3Cc3ccccc3C2C1 (stereo not given) [Mianserin hydrochloride],24.9
18,N[C@@H](Cc1ccc(O)c(O)c1)C(=O)O [levodopa],6.31
19,CCCCc1ncc(/C=C(\Cc2cccs2)C(=O)O)n1Cc1ccc(C(=O)O)cc1 [Eprosartan mesylate],15.5
20,O=C(O)CCC(=O)c1ccc(-c2ccccc2)cc1 [fenbufen],1.92
21,O=C1c2c(O)ccc(O)c2C(=O)c2c(NCCNCCO)ccc(NCCNCCO)c21 [mitoxanthrone hydrochloride],31.5
22,CCOC(=O)C1=C(C)NC(C)=C(C(=O)OC)C1c1cccc(Cl)c1Cl (stereo not given) [felodipine],7.8
23,CO[C@H]1C[C@H](O[C@@H]2/C(C)=C/C[C@@H]3C[C@@H](C[C@]4(CC[C@H](C)[C@@H](C5CCCCC5)O4)O3)OC(=O)[C@@H]3C=C(C)/C(=N/O)[C@H]4OC/C(=C\C=C\[C@@H]2C)[C@]43O)O[C@@H](C)[C@@H]1O [selamectin],28.2
24,C[C@H](CCC(=O)O)[C@H]1CC[C@H]2[C@@H]3C(=O)C[C@@H]4CC(=O)CC[C@]4(C)[C@H]3CC(=O)[C@]12C [dehydrocholic acid],0.86
25,C[C@H](CCC(=O)O)[C@H]1CC[C@H]2[C@@H]3C(=O)C[C@@H]4CC(=O)CC[C@]4(C)[C@H]3CC(=O)[C@]12C [sodium dehydrocholate],2.03

row,SMILES,motility inhibition on day 3 [%]
1,C[N+](C)(C)CCOC(N)=O [Carbachol],6.1
2,CC(C)(C)NC[C@H](O)COc1cccc2c1CCCC2=O [levobunolol hydrochloride],5.47
3,COC(=O)/C=C/C(=O)OC [dimethyl fumarate],15.8
4,OC[C@H]1O[C@@H](O[C@H]2[C@H](O)[C@@H](O)C(O)O[C@@H]2CO)[C@H](O)[C@@H](O)[C@H]1O (stereo not given in full) [lactose monohydrate],31.5
5,O=C(NC(Cc1cc(=O)[nH]c2ccccc12)C(=O)O)c1ccc(Cl)cc1 (stereo not given) [rebamipide],5.69
6,COc1ccc(C[C@@H](C)NC[C@H](O)c2ccc(O)c(NC=O)c2)cc1 [Arformoterol Tartrate],20.5
7,CCCCC(=O)N(Cc1ccc(-c2ccccc2-c2nnn[nH]2)cc1)[C@H](C(=O)O)C(C)C [valsartan],< 0
8,OC(CCN1CCCCC1)(c1ccccc1)c1ccccc1 [pridinol methanesulfonate],10.2
9,CCN(CC)CCNC(=O)c1cc(Br)c(N)cc1OC [bromopride],36.4
10,CCOC(N)=O [urethane],34.7
11,O=C1c2cccc(O)c2C(=O)c2c(O)cccc21 [dantron],38.3
12,CSCC[C@H](NC(=O)[C@H](Cc1c[nH]c2ccccc12)NC(=O)CCNC(=O)OC(C)(C)C)C(=O)N[C@@H](CC(=O)O)C(=O)N[C@@H](Cc1ccccc1)C(N)=O [pentagastrin],14.6
13,CC(C)NNC(=O)c1ccncc1 [Iproniazid phosphate],< 0
14,Clc1ccc(C(c2ccccc2Cl)C(Cl)Cl)cc1 (stereo not given) [mitotane],28.7
15,O=C1O[C@H]([C@@H](O)CO)C(O)=C1O [ascorbic acid],13.4
16,CC(=O)Nc1ccc(S(=O)(=O)c2ccc(NC(C)=O)cc2)cc1 [acedapsone],13.4
17,O=C(O)c1ccccc1Nc1cccc(C(F)(F)F)c1 [flufenamic acid],3.12
18,OCCc1ccccc1 [phenylethyl alcohol],24.9
19,Nc1ccc(C(=O)O)c(O)c1 [sodium p-aminosalicylate],0.793
20,O=C1Nc2ccc(Cl)cc2[C@@](C#CC2CC2)(C(F)(F)F)O1,3.27
21,Nc1nc(/C(=C/CC(=O)O)C(=O)N[C@@H]2C(=O)N3C(C(=O)O)=CCS[C@H]23)cs1 [ceftibuten],12.3
22,CCC(=O)O[C@]1(C(=O)SCF)[C@H](C)C[C@H]2[C@@H]3C[C@H](F)C4=CC(=O)C=C[C@]4(C)[C@@]3(F)[C@@H](O)C[C@@]21C,30.4
23,CCC(=O)O[C@]1(C(=O)SCF)[C@H](C)C[C@H]2[C@@H]3C[C@H](F)C4=CC(=O)C=C[C@]4(C)[C@@]3(F)[C@@H](O)C[C@@]21C [fluticasone propionate],< 0
24,Nc1ccc(/N=N/c2ccccc2)c(N)n1 [phenazopyridine hydrochloride],2.95
25,C[C@H](N[C@@H](CCc1ccccc1)C(=O)O)C(=O)N1Cc2ccccc2C[C@H]1C(=O)O [quinaprilat],12.3

# Exported with tabs: entries from further up
row	SMILES	motility inhibition on day 3 [%]
2	CC(C)(C)NC[C@H](O)COc1cccc2c1CCCC2=O [levobunolol hydrochloride]	5.47
3	COC(=O)/C=C/C(=O)OC [dimethyl fumarate]	15.8

# (further entries)

row,SMILES,motility inhibition on day 3 [%]
1,CN(C)CCOC(=O)C(c1ccccc1)C1(O)CCCC1 (stereo not given) [cyclopentolate hydrochloride],< 0
2,CC(NCCc1ccc(O)cc1)C(O)c1ccc(O)cc1 (stereo not given) [ritodrine hydrochloride],14.3
3,CCC1(C)CC(=O)NC1=O (stereo not given) [ethosuximide],< 0
4,NC1CCN(c2c(F)cc3c(=O)c(C(=O)O)cn(C4CC4)c3c2Cl)C1 (stereo not given) [clinafoxacin hydrochloride],9.93
5,CC(=O)Nc1ccc(OC(C)=O)cc1 [diacetamate],4.31
6,CCCNC(C)(C)COC(=O)c1ccccc1 [meprylcaine hydrochloride],3.08
7,O=S(=O)(c1cccc2cnccc12)N1CCCNCC1 [fasudil hydrochloride],0.676
8,CCc1nn(CCCN2CCN(c3cccc(Cl)c3)CC2)c(=O)n1CCOc1ccccc1 [nefazodone hydrochloride],28
9,CC(=O)Oc1ccc(C(c2ccc(OC(C)=O)cc2)c2ccccn2)cc1 [bisacodyl],< 0
10,CCOC(=O)CC(=O)N1CCSC1COc1ccccc1OC (stereo not given) [moguisteine],6
11,C[C@@H]1CN(c2c(F)c(F)c3c(=O)c(C(=O)O)cn(C4CC4)c3c2F)C[C@H](C)N1 [orbifloxacin],2.17
12,CCC(C)(C)C(=O)O[C@H]1C[C@@H](C)C=C2C=C[C@H](C)[C@H](CC[C@@H]3C[C@@H](O)CC(=O)O3)[C@H]21 [simvastatin],1.22
13,CCCc1nn(C)c2c(=O)[nH]c(-c3cc(S(=O)(=O)N4CCN(C)CC4)ccc3OCC)nc12 [sildenafil],0.685
14,NNC(=O)c1ccncc1.Nc1ccc(C(=O)O)c(O)c1 [pasiniazid],13.3
15,CC(O)(CC(=O)O)CC(=O)O [meglutol],33
16,O=[N+]([O-])c1ccc(O)c2ncccc12 [nitroxoline],75.1
17,O=C(O[C@@H]1C[C@@H]2C[C@H]3C[C@H](C1)N2CC3=O)c1c[nH]c2ccccc12 [Dolasetron],11
18,COc1ccc2cc1Oc1ccc(cc1)C[C@H]1c3c(cc4c(c3Oc3cc5c(cc3OC)CCN(C)[C@@H]5C2)OCO4)CCN1C [cepharanthine],0.433
19,CC(O)CC(C)(C)O (stereo not given) [hexylene glycol],18.5
20,CCOC(=O)c1ccc(O)cc1 [ethyl paraben],6.94
21,Cn1c(=O)c2c(ncn2C)n(C)c1=O [Caffeine],24.2
22,O=C([O-])C(O)[C@H](O)[C@@H](O)[C@H](O)[C@H](O)CO.O=C([O-])C(O)[C@H](O)[C@@H](O)[C@H](O)[C@H](O)CO.[Ca+2] (stereo not given in full) [calcium gluceptate],4.21
23,Cc1c(OCC(F)(F)F)ccnc1C[S+]([O-])c1nc2ccccc2[nH]1 (stereo not given) [lansoprazole],35.5
24,CC(C)(C)NCC(O)c1ccc(O)c(CO)c1 (stereo not given) [Albuterol hemisulfate],10.1
25,Cc1onc(-c2ccccc2)c1C(=O)N[C@@H]1C(=O)N2[C@@H]1SC(C)(C)[C@@H]2C(=O)O [oxacillin sodium],< 0

# Already shown: entries from further up.
row,SMILES,motility inhibition on day 3 [%]
7,CCCCC(=O)N(Cc1ccc(-c2ccccc2-c2nnn[nH]2)cc1)[C@H](C(=O)O)C(C)C [valsartan],< 0
8,OC(CCN1CCCCC1)(c1ccccc1)c1ccccc1 [pridinol methanesulfonate],10.2
9,CCN(CC)CCNC(=O)c1cc(Br)c(N)cc1OC [bromopride],36.4
10,CCOC(N)=O [urethane],34.7
11,O=C1c2cccc(O)c2C(=O)c2c(O)cccc21 [dantron],38.3
